Results from PubChem BioAssay AID2417 (National Center for Advancing Translational Sciences (NCATS), 2010).
The whole screen tested about 140,000 compounds, of which about 4,300 (3.1%) were called active. The shares of active, inactive and inconclusive entries below differ from those in the screen.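 Rule for the calls: active = readout at or below -70, meaning at least 70% loss of cells showing the perinucleolar compartment, a nuclear body marking cancer cells; inconclusive = readout between -30 and a set limit; inactive = the rest.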

assay: High Content Assay for Compounds that inhibit the Assembly of the Perinucleolar Compartment; settings: PC3M PTB-GFP, PNC prevalence imaging, 16 h; at 10 µM; stronger effect = lower value;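 note: plate controls were DMSO wells for no effect and camptothecin positive control wells for full effect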
Outline: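 PC3M cells stably expressing PTB-GFP, 750–1000 cells/well, treated 16 h at 37 °C with compound (23 nl of library stock), in duplicate. After paraformaldehyde fixation and Hoechst stain, imaged at 20x; PNC prevalence scored by image analysis.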

SMILES	activity change (PNC), negative = inhibition
C/C(=N\NC(=O)c1ccc(=O)[nH]n1)c1cccnc1	inconclusive: -33.7%
COc1ccc(C)cc1S(=O)(=O)N1CCC(C)CC1	inconclusive: -37.6%
CCOC(=O)c1c(NC(=O)C(C)Sc2cccc[n+]2[O-])sc2c1CCN(Cc1ccccc1)C2 (stereo not given)	inactive: 16.4%
O=C(Nc1ccc2c(c1)OCCO2)C1CCCN1S(=O)(=O)c1ccc(Cl)cc1 (stereo not given)	inconclusive: -42.7%
NCCCCCc1nnc(SCc2ccccc2Cl)o1	inactive: 1.46%
O=C(COc1ccc(Cl)cc1)NCc1nnc(SCC(=O)Nc2ccc3c(c2)OCCO3)o1	inconclusive: -41.3%
CCC(=O)NCCn1ccc2ccccc21	inconclusive: -31.7%
O=C(CCNS(=O)(=O)c1c(Cl)cccc1Cl)OCC(=O)c1ccccc1F	inconclusive: -52.1%
CCOc1ccccc1OCC(=O)Nc1ccc(S(=O)(=O)Nc2nc(C)cc(C)n2)cc1	inconclusive: -34%
CCCCCC(=O)Nc1ccccc1N1CCN(c2ccccc2)CC1	inconclusive: -32.6%
COC(=O)c1c[nH]n2c(=O)c(Cl)c(C)nc12	active: -113%
Cc1sc(NC(=O)CSc2ncn(-c3ccccc3)n2)nc1-c1ccccc1	inconclusive: -31.2%
CC(C)(C)NC(=O)CN(C(=O)CNS(=O)(=O)c1ccccc1)c1ccc2c(c1)OCCO2	inconclusive: -58.1%
CC(=O)COC(=O)CNC(=O)c1ccc(Br)cc1	inconclusive: -30.8%
COC(=O)CNC(=O)c1ccccc1C	inconclusive: -49.6%
Cc1cc(Cl)ccc1N=c1ssnc1Cl	inactive: 27.6%
CCCOC(=O)C1=C(C)NC2=C(C(=O)CCC2)C1c1cc(OC)ccc1OC (stereo not given)	inconclusive: -46.8%
COc1ccc(/C=C/C(=O)OCC(=O)NCC2CCCO2)cc1 (stereo not given)	active: -81.6%
Cc1cccc(C(=O)NCc2ccc(S(N)(=O)=O)cc2)c1[N+](=O)[O-]	inconclusive: -36.4%
O=C(COC(=O)c1c2c(nc3ccccc13)CCN(Cc1ccccc1)C2)Nc1c(F)cccc1F	inactive: 5.49%
CC(=O)NC(Cc1ccccc1)c1ccc2c(c1)OCCCO2 (stereo not given)	inconclusive: -35.1%
CCOC(=O)c1ccc(NC(=O)NC2CC3CCC(C2)N3Cc2nnnn2C(C)(C)C)cc1 (stereo not given)	inactive: -4.34%
Cc1cccc(OCCC(=O)NCC(=O)Nc2cccc(C)c2C)c1	inconclusive: -52.3%

SMILES	activity change (PNC), negative = inhibition
COc1cc(-c2nc3ccc(C)cn3c2Nc2ccc3c(c2)OCCO3)ccc1O	inconclusive: -48.6%
CC1Cc2ccccc2N1Cc1nc2cc(Cl)ccc2c(=O)[nH]1 (stereo not given)	inactive: -17.7%
COc1cc(OC)cc(C(=O)NC(=S)NNC(=O)c2cnccn2)c1	inconclusive: -66.9%
CC1CCCCN1C(=O)CSc1ccc(-c2ccc(F)cc2)nn1 (stereo not given)	inconclusive: -34%
COc1cc(C(=O)Nc2cccc(-c3nncn3C)c2)cc(OC)c1OC	inconclusive: -49.3%
CCOC(=O)C1=C(C)NC2=C(C1c1ccc([N+](=O)[O-])cc1)S(=O)(=O)c1ccccc12 (stereo not given)	inactive: 1.03%
Cc1ccc(CNC(=O)C23CN(Cc4ccccc4)CC2C(c2ccc([N+](=O)[O-])cc2)=NO3)o1 (stereo not given)	inconclusive: -44%
Oc1ccc2cccnc2c1	inactive: -29.9%
CCOc1ccc(-c2c[n+]3c(n2-c2ccccc2)CCCCC3)cc1	inconclusive: -36.2%
CC(=O)Nc1cccc(/C(C)=N/NC(=O)c2ccccc2Cl)c1	inactive: 5.62%
Cc1ccc(/C=N/NC(=O)CSc2nc3ccccc3n2C)s1	inactive: 92.7%
O=C(CSc1nnc(Cn2cnc3ccccc32)o1)c1ccccc1	inconclusive: -74.1%
CCOC(=O)N/N=C/c1c(C)nn(-c2cccc(C(F)(F)F)c2)c1Cl	active: -83.1%
N#CCC(=O)NN=C1CCCCCCCCCCC1	inactive: 18.9%
COC(=O)CC(NS(=O)(=O)c1cccs1)c1ccccc1Cl (stereo not given)	inconclusive: -51.2%
CC(=O)OCCCNc1cc(Sc2ccc(C)cc2)c2nonc2c1[N+](=O)[O-]	inconclusive: -44.8%
COc1ccc(CCN2C(=O)c3ccncc3C2=O)cc1OC	inactive: 9.63%
Nn1c(SCC(=O)Nc2ccc3c(c2)OCO3)nnc1-c1ccncc1	inactive: 33.8%
CCOC(=O)c1c(NC(=O)CSc2nncs2)sc(C)c1C	inactive: -0.589%
Brc1ccc(/C=N/c2nc3ccccc3n2CCN2CCOCC2)cc1	inconclusive: -43.1%
O=C(c1cccnc1)N1CCN(S(=O)(=O)c2ccc(Cl)cc2)CC1	inconclusive: -35.7%
CCc1ccc2c(c1)c1nc(C)sc1n2CC(=O)OC	inconclusive: -56.8%
O=C(c1ccc(F)cc1)N1CCC(N2CCCCCC2)CC1	inconclusive: -35.4%

SMILES	activity change (PNC), negative = inhibition
O=C(Nc1cccnc1)c1cccc(F)c1	inactive: -9.57%
COc1ccccc1CC(=O)NN1C(=O)c2ccccc2C1=O	inconclusive: -34.7%
Cc1ccc(C)c(NC(=S)NNC(=O)c2csc3c2CCC(C)C3)c1 (stereo not given)	active: -113%
CCOC(=O)CCCCC(=O)c1[nH]c(=O)[nH]c1CSc1nnc2c3ccccc3n(C(C)C)c2n1	inactive: -7.62%
CCCCc1cc2c(s1)CCCC/C2=N/O	inactive: 0.0645%
O=S(=O)(/N=C(/Nc1ccc(F)cc1F)c1ccccc1)c1ccc(Br)cc1	active: -99.1%
Nc1cccc(S(=O)(=O)NC2=NCCC2)c1	inconclusive: -35.6%
O=C(NC1CCCC1)C(NS(=O)(=O)c1cccc2nsnc12)c1ccccc1 (stereo not given)	inconclusive: -34.2%
N=c1c2c(n(Cc3ccccc3)c3c1CCC3)CCC2	inactive: -15.6%
Cc1ccc(N=Cc2c(C)[nH]n(-c3nc4ccccc4[nH]3)c2=O)cc1	active: -81.5%
O=C(N/N=C/c1ccc(Br)o1)c1cncc(Br)c1	inactive: -10.5%
Nc1cnc(Br)cc1Br	inactive: 18.3%
CCOC(=O)Cn1nc(C)c(-c2ccccc2)c1N	inconclusive: -42.6%
Cc1ccc(NC(=S)N(CCN(C)C)C(C)c2ccco2)cc1C (stereo not given)	inconclusive: -57.2%
CCOC(=O)c1c(C)[nH]c(C=C2C(=O)CCCC2=O)c1O	inconclusive: -34.6%
Nc1nc2c(s1)C(=O)CCC2	inconclusive: -30.8%
CCOC(=O)c1c(NC(=O)C2CCCN(S(=O)(=O)c3ccc(C)cc3)C2)sc2c1CCCC2 (stereo not given)	inconclusive: -52.4%
COc1cccc(-c2nc(CS(=O)(=O)CC(=O)NCCCOC(C)C)c(C)o2)c1	inconclusive: -57%
CCC12CCCN3CCC4(C(=C(C(=O)OC)C1)Nc1ccccc14)C32 (stereo not given)	inconclusive: -31.9%
O=C(NC(=S)Nc1ccccn1)c1ccc([N+](=O)[O-])cc1	active: -85.5%
O=C(CN(Cc1ccc(F)cc1)S(=O)(=O)c1ccc(S(=O)(=O)N2CCOCC2)cc1)Nc1ccccc1	inactive: 65.4%
O=C(Nc1ccccc1)NC1CC2CCC(C1)N2Cc1nnnn1Cc1ccc2c(c1)OCO2 (stereo not given)	inconclusive: -59.7%
COc1ccc(C2NC(=O)c3sc(=S)n(-c4ccccc4)c3N2)cc1 (stereo not given)	inconclusive: -37.4%

SMILES	activity change (PNC), negative = inhibition
C=CCn1c(SCC(=O)NC2CCCCC2)nnc1C(C)NC(=O)c1cccs1 (stereo not given)	inconclusive: -67.6%
CC(C)OCCCNC(=O)c1cc2c(=O)n(C)c3ccccc3c2n1C	inconclusive: -41.1%
CCOc1ccc(S(=O)(=O)N(CC)CC)cc1NS(=O)(=O)c1ccc(F)c(F)c1F	inactive: -5.87%
CCOC(=O)C(NCCc1ccccc1)(NC(=O)CC)C(F)(F)F (stereo not given)	inactive: -0.539%
CCN(Cc1ccccc1)S(=O)(=O)c1ccc(S(=O)(=O)N(Cc2ccccn2)Cc2ccco2)cc1	inconclusive: -34.7%
COc1ccc(S(=O)(=O)N2CCC(C(=O)N3CCOCC3)CC2)cc1	active: -100%
O=C(NCCOCC(F)(F)C(F)F)c1cc(F)c(F)cc1Cl	inconclusive: -50.1%
Cc1ccc(NS(=O)(=O)c2cc([N+](=O)[O-])ccc2NNC(=S)Nc2cc(C)ccc2C)c(C)c1	inconclusive: -38.5%
O=C(c1ccc(O)cc1)c1ccc(C(=O)c2ccc(O)cc2)cc1	inactive: 7.88%
COc1ccc2c(c1)[nH]c1c(=O)n(CCN(C)C)cnc12	inconclusive: -49.9%
O=C(Nc1nnc(SCc2ccccc2)s1)c1cccs1	inconclusive: -35.6%
CCn1c(SCC(=O)N/N=C/c2ccc(C)o2)nnc1-c1ccc(C)cc1	inactive: -19.4%
CCOc1ccc(S(=O)(=O)Nc2cc(S(=O)(=O)N(CC)CC)ccc2N2CCCC2)cc1	active: -121%
COc1ccc(NC(=O)N(C2CCCCC2)C2CCN(C(C)C)CC2)c(OC)c1	inconclusive: -70.6%
O=[N+]([O-])c1ccc(-c2nnc(-c3ccccc3)c(NCCCO)n2)cc1	active: -85.1%
CC1CCN(C(=O)C2CCN(CC(C)c3ccccc3)CC2)CC1 (stereo not given)	inconclusive: -73.1%
Cc1cc(CNC(=O)C(C)Cc2ccccc2)nn1C (stereo not given)	inactive: 45.2%
CCC(C)n1c(SCC(=O)/C(C#N)=C(\C)N)nc2ccccc2c1=O (stereo not given)	inconclusive: -74%
Cc1cccc(CN2CCN(C(=O)c3ccccc3F)CC2)c1	inconclusive: -51.4%
CC1(C)CC(=O)C2=C(C1)N(c1cccc(Cl)c1)C(=O)NC2(C(F)(F)F)C(F)(F)F	active: -80.2%
O=S(=O)(/N=C(/Nc1cc(N2CCOCC2)ncn1)c1ccc(F)cc1)c1ccccc1	inconclusive: -41.7%
